Reference: patent US8901294B2, “MRI contrast agent having gadolinium complex” (priority 2010, dated 2014)
Some results were stated once for a whole list of compounds, not compound by compound. At least one compound was matched to its structure with a doubt left.

Assay: Transmetalation kinetics: evolution of paramagnetic relaxation rate R1P(t)/R1P(0) in presence of ZnCl2
Type: physicochemical
Conditions: 72 hours; phosphate-buffered solution pH 7.4, 2.5 mmol/L Gd-complex and 2.5 mmol/L ZnCl2, room temperature, 3T
From the text: […]. The relative value of R1^P at time t, R1^P(t)/R1^P(0), is therefore a good estimate of the extent of transmetalation. The evolution of R1^P(t)/R1^P(0) over time gives relevant information about the kinetics of the reaction, whereas the plateau value theoretically reached at t=∞ will reflect the thermodynamic aspect.
Accordingly, in order to investigate the transmetalation kinetics of the gadolinium complexes according to the present invention, the evolution of water proton relaxation rate (R1^P) of a phosphate-buffered solution (pH 7.4) containing 2.5 mmol/L of Gd-complex and 2.5 mmol/L of ZnCl2 with time was measured. To measure the change in the relaxation rate, 10 μL of a ZnCl2 solution (250 mmol/L) was added to 1 mL of a buffered solution of the Gd-complex and the mixture was vigorously stirred. The same experiment was performed with Dotarem®, Omniscan®, Multihance®, Primovist® and ethyl tranexamate (6) with zinc acetate for comparison. The measurement was made on a 3T whole body system (Magnetom Tim Trip; Simens, Germany) at room temperature.

SMILES	paramagnetic relaxation rate retained, R1P(t)/R1P(0) (kinetic stability) [%]
O.O=C([O-])CN1CCN(CC(=O)[O-])CCN(CC(=O)NCC2CCC(C(=O)O)CC2)CCN(CC(=O)[O-])CC1.[Gd+3] (centres unmarked) [Compound 5a]	≥ 98
C=CCOC(=O)C1CCC(CNC(=O)CN2CCN(CC(=O)[O-])CCN(CC(=O)[O-])CCN(CC(=O)[O-])CC2)CC1.O.[Gd+3] (centres unmarked) [Compound 5c]	≥ 98
